The values that follow come from US20080293679A1, “Use of carotenoids and/or carotenoid derivatives/analogs for reduction/inhibition of certain negative effects of COX inhibitors” (priority 2005, published 2008).

The nature of data set [1]: Small angle x-ray diffraction of carotenoids in POPC membranes. In kind it is physicochemical. Conditions: 20° C., control 55.
The nature of data set [2]: Small-angle x-ray diffraction of COX-2 inhibitors in membrane lipid bilayers. It is filed as physicochemical. The following applies: drug to phospholipid 1:10 (<5% by mass), cholesterol:phospholipid 0.2:1.
Where [3] appears, read: 74% RH, C/P 0.2, carotenoids/POPC 1/15.

With `CC1=C(/C=C/C(C)=C/C=C/C(C)=C/C=C/C=C(C)/C=C/C=C(C)/C=C/C2=C(C)C(=O)[C@@H](O)CC2(C)C)C(C)(C)C[C@H](O)C1=O` [Astaxanthin, 3,3′-dihydroxy-β,β′-carotene-4,4′-dione], the “d Space” value is given as 55 Å in data set [1] (setting [3]) and 57 Å in data set [1] (87% RH, carotenoids/POPC 1/15).
In the case of `CC1=CC(O)CC(C)(C)C1/C=C/C(C)=C/C=C/C(C)=C/C=C/C=C(C)/C=C/C=C(C)/C=C/C1=C(C)CC(O)CC1(C)C` (stereo not drawn) [Lutein, β,ε-carotene-3,3′-diol], the “d Space” value in data set [1] (setting [3]) was 57 Å; in data set [1] (87% RH, carotenoids/POPC 1/15), 60 Å.
Taken in the same sequence, the figures for `CC(C)=CCC/C(C)=C/C=C/C(C)=C/C=C/C(C)=C/C=C/C=C(C)/C=C/C=C(C)/C=C/C=C(\C)CCC=C(C)C` [Lycopene] were 59 Å and 65 Å.
Taken in the same sequence, the figures for `CC1=C(/C=C/C(C)=C/C=C/C(C)=C/C=C/C=C(C)/C=C/C=C(C)/C=C/C2=C(C)C[C@@H](O)CC2(C)C)C(C)(C)C[C@H](O)C1` [Zeaxanthin] were 57 Å and 58 Å.
In the case of `CS(=O)(=O)c1ccc(C2=C(c3ccccc3)C(=O)OC2)cc1` [rofecoxib], in data set [2], the “region of decrease in electron density (hydrocarbon core), distance from the membrane center” value is listed as 0-10 Å and the “region of increase in electron density, distance from the center of the membrane” value is 22-28 Å.
As to `CC1=C(/C=C/C(C)=C/C=C/C(C)=C/C=C/C=C(C)/C=C/C=C(C)/C=C/C2=C(C)CCCC2(C)C)C(C)(C)CCC1` [β-Carotene], the “d Space” value was 57 Å in data set [1] (setting [3]) and 61 Å in data set [1] (87% RH, carotenoids/POPC 1/15).
